Only a part is listed here, and it is no random draw. At the low end of the ranking, values are background and their order means little.
Molecular target: T1, ELK3 (UniProt P41970)
T1 sequence: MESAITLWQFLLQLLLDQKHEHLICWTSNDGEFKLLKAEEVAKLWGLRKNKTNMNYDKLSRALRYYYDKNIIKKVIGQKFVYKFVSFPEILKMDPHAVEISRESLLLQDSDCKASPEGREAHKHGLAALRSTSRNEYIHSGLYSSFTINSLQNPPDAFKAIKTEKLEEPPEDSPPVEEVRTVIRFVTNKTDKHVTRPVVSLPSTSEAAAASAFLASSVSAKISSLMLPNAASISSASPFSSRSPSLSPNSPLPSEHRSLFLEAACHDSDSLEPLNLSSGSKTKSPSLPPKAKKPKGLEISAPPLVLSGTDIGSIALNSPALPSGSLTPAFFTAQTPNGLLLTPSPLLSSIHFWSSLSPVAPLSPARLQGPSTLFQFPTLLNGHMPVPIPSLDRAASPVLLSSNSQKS
Assay: DAPPL (digital affinity profiling via proximity ligation, sequencing)
Details: 10 mM Tris-HCl pH 7.5, 50 mM NaCl, 1 mM DTT, 4% glycerol, room temperature, 30 min; GST-TFs on glutathione beads, 16-mer random dsDNA library, 0.1% …; high values mean tight binding; double strand, one strand shown; scale: fold enrichment (6-mer frequency, TF over GST control)

Sequence | binding signal
TCAATT | 0.989
CTTAAC | 1.31
GCACTG | 1.06
AACCCC | 1.14
ATTTGT | 1.24
TTGTAT | 1.4
CTTTGA | 1.15
GTTTTG | 1.11
AAGGCA | 0.892
TTAGCA | 1.17
TAAGCA | 0.928
GTCCTT | 1.25
CCGACG | 1.2
GCTAAG | 0.871
TAGCTC | 1.28
TAGTTC | 1.15
CCGCGC | 1.24
AGGAAG | 1.26
CTCATA | 1.34
CCCAAA | 1.1

Sequence | binding signal
TGACCA | 1.45
TATCGC | 0.995
CATGTA | 1.13
TGTATT | 1.43
TACGTC | 1.21
GCTTCC | 4.31
CCCTAT | 1.46
ACTATC | 1.07
TACGCA | 1.25
CCCTAG | 0.948
CCACAT | 1.14
AATAGG | 1.14
AGCATT | 1.07
CTTCTT | 1.61
GAAGCG | 1.49
ATGCCT | 1.22
ATAGAT | 1.23
AAGATC | 1.02
ATCTGG | 1.09

A few values from the entries so far.
binding signal with ATGCCT is entered as 1.22
binding signal with ACTATC is entered as 1.07
binding signal with AGCATT is entered as 1.07
